Test results reported in patent publication US20180169183A1.
No constants are given. Whether binding was seen depends on the method and setting. Some binding calls cover weakened binding; strength is not graded here.

By UniProt entry, the sequences of proteins in these tests, tags left out. Where a name states a change or a piece, a line headed by the entry shows the natural chain unless it says otherwise. Residues count along the entry.
UniProt O14763: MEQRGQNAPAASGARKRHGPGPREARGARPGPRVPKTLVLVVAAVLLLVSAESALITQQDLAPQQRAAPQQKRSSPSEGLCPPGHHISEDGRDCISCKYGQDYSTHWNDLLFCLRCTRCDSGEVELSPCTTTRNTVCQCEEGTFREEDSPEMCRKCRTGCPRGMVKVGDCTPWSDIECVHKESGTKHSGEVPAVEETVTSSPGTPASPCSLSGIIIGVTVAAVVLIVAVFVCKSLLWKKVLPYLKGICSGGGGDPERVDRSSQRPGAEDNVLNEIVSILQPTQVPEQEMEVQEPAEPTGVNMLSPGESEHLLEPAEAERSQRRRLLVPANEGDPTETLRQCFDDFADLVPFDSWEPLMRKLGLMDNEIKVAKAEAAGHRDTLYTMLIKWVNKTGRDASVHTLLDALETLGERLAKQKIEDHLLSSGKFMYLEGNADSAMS
TRAIL receptor DR5 on Jurkat cells: residues 56-440 of O14763
TRAIL-receptor DR5 (on the Biacore chip): residues 56-182 of O14763
UniProt O43508: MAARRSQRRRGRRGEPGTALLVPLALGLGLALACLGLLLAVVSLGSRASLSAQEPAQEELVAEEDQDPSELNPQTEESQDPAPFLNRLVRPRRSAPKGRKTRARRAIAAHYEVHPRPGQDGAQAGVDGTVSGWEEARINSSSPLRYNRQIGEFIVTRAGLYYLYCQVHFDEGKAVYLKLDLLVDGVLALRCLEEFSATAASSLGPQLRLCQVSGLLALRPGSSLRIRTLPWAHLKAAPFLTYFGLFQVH

What was measured:
[1] = molecular target: TRAIL receptor DR5 on Jurkat cells (human) (UniProt O14763); experiment: title of Example 4 (neutralizing antibodies and flow cytometry on Jurkat cells)
[2] = molecular target: TRAIL-receptor DR5 (on the Biacore chip) (UniProt O14763); experiment: Biacore, title of Example 11
[3] = molecular target: TRAIL-receptor DR5 (on the Biacore chip) (UniProt O14763); experiment: Biacore, chip covered with DR5
[4] = molecular target: TRAIL receptor DR5 on Jurkat cells (human) (UniProt O14763); experiment: flow cytometry, legend of FIGS. 3A-B
[5] = molecular target: TRAIL-receptor DR5 (on the Biacore chip) (UniProt O14763); experiment: Biacore, legend of FIG. 12
[6] = molecular target: TRAIL receptor DR5 on Jurkat cells (human) (UniProt O14763); experiment: flow cytometry at 4 C, loss of anti-DR5 staining on Jurkat cells

- binding [1]: binds
- binding [2]: binds
- binding [3]: binds
- binding [4]: binds
- binding [5]: binds
- binding [6]: binds
Substance: TWEAK-Fn14-TRAIL complex (from UniProt O43508 94-249)
